In patent US5332427A, “Wood preservatives” (priority 1991, dated 1994):
At least one structure is not confirmed: it was looked up by name or label, or the drawing left a doubt.

Experiment: Discoloration (coloration) of oil formulation-coated filter paper under irradiation with light (Test Example 1)
Format: physicochemical
Set-up: key: -: No discoloration (coloration); +: Slight discoloration (coloration); ++: Prominent discoloration (coloration)
Details: 1% oil formulation, 100 ml per m^2 of filter paper, light of 6000-7000 lux for 5 minutes
Experimental: A 1% oil formulation of each of the test compounds shown in Table 2 was prepared according to Formulation Example 1. The oil formulation was coated on a filter paper having a diameter of 5.5 cm in an amount of 100 ml of the oil formulation per m^2 of the filter paper and the filter paper was air-dried. The filter paper thus prepared was subjected to irradiation with light of 6000-7000 lux for 5 minutes and then, taken out, after which the degree of discoloration (coloration) was observed. The degree of discoloration (coloration) was determined based on the following standard.
No discoloration (coloration): -
Slight discoloration (coloration): +
Prominent discoloration (coloration): ++

CCOC(=O)OCC(I)=C(Br)I [Compound (A), 3-Bromo-2,3-diiodo-2-propenylethyl carbonate]
Degree of discoloration (coloration): ++
